Taken from: PubChem BioAssay AID652243 (Drosophila RNAi Screening Center, 2013)
Test: 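Fly regulators of androgen-dependent reporter output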 (primary screen). System: Drosophila S2R+ cells. Reagent: long dsRNA against Drosophila genes. Duration: 72 h (48 h, then 24 h hormone). Conditions: synthetic androgen R1881 at 10 nM for 24 h. Measured: 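Firefly light from an androgen-responsive reporter and Renilla control light per well, raw and unnormalised, for each of two replicates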. Direction: firefly reporter light: higher = more light from androgen-responsive reporter; Renilla control light: higher = more constitutive control signal (cell number, transfection). Call rule: 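Hit when the log firefly-to-Renilla ratio dropped or increased by a fixed fold versus the mean of GFP or LacZ controls across duplicate plates; lowering cut given as 1.5 and as 3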. Meaning of the calls: active = hit: reporter lowered or raised; inactive = no hit.
The screen tested about 24,000 reagents; shown is an unselected part of those with a known target gene and a result. In the full data, 246 (1%) were called active. 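Plates not normalised; calls are printed but the firefly/Renilla ratio behind them is not deposited; fold cut for lowering reported inconsistently.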 The raw values are shown without normalisation. Reagent sequences are not shown. Not stated in the record: the amount of reagent.

| target | DRSC id | firefly reporter light, replicate 1 | firefly reporter light, replicate 2 | Renilla control light, replicate 1 | Renilla control light, replicate 2 | Call |
| --- | --- | --- | --- | --- | --- | --- |
| InR | DRSC16717 | 2.88e5 | 2.12e5 | 3.49e6 | 3.48e6 | inactive |
| InR | DRSC36685 | 8.45e5 | 7.76e5 | 1.84e6 | 1.83e6 | inactive |
| InR | DRSC36686 | – | – | – | – | inactive |
| CG7497 | DRSC10857 | 46258 | 57407 | 6.22e5 | 5.18e5 | inactive |
| CG7497 | DRSC28188 | 3.59e5 | 3.41e5 | 1.23e6 | 1.40e6 | inactive |
| CG7497 | DRSC37068 | – | – | – | – | inactive |
| Ctl2 | DRSC14423 | 1.09e5 | 97720 | 8.51e5 | 4.55e5 | inactive |
| Ctl2 | DRSC29712 | 3.32e5 | 3.82e5 | 1.51e6 | 1.38e6 | inactive |
| CG13795 | DRSC02299 | 2.95e5 | 3.23e5 | 2.53e6 | 2.21e6 | inactive |
| CG13227 | DRSC06347 | 2.57e5 | 3.49e5 | 7.97e5 | 1.88e6 | inactive |
| CG13227 | DRSC27529 | 2.16e5 | 1.59e5 | 6.26e5 | 8.91e5 | inactive |
| Wee1 | DRSC03635 | 1.77e5 | 2.39e5 | 1.75e6 | 2.02e6 | inactive |
| Wee1 | DRSC23318 | 4.61e5 | 5.25e5 | 1.67e6 | 1.92e6 | inactive |
| Wee1 | DRSC36678 | – | – | – | – | inactive |
| Akr1B | DRSC10581 | 1.07e6 | 1.10e6 | 1.15e6 | 1.71e6 | inactive |
| CG31326 | DRSC16532 | 95972 | 82488 | 1.03e6 | 1.64e6 | inactive |
| CG31326 | DRSC26494 | 1.76e5 | 2.05e5 | 2.37e5 | 2.16e5 | inactive |
| CG10602 | DRSC02075 | 1.28e6 | 7.72e5 | 2.14e6 | 1.82e6 | inactive |
| CG9123 | DRSC20156 | 6.91e5 | 7.27e5 | 4.17e6 | 4.37e6 | inactive |
| CG30154 | DRSC05889 | 1.03e5 | 1.80e5 | 3.76e5 | 5.67e5 | inactive |
| CG30154 | DRSC26172 | 3.59e5 | 3.00e5 | 7.99e5 | 7.68e5 | inactive |
| CG12935 | DRSC06248 | 1.19e6 | 9.12e5 | 1.68e6 | 1.61e6 | inactive |
| CG6865 | DRSC10732 | 2.41e5 | 1.74e5 | 2.23e6 | 1.65e6 | inactive |
| CG34207 | DRSC38739 | 9.00e5 | 8.59e5 | 1.86e6 | 2.33e6 | inactive |
| Efhc1.1 | DRSC20135 | 6.58e5 | 5.71e5 | 3.58e6 | 3.08e6 | inactive |

No new results follow: an excerpt of the list.
| target | DRSC id | firefly reporter light, replicate 1 | firefly reporter light, replicate 2 | Renilla control light, replicate 1 | Renilla control light, replicate 2 | Call |
| --- | --- | --- | --- | --- | --- | --- |
| CG30154 | DRSC05889 | 1.03e5 | 1.80e5 | 3.76e5 | 5.67e5 | inactive |
| CG30154 | DRSC26172 | 3.59e5 | 3.00e5 | 7.99e5 | 7.68e5 | inactive |

Additional records follow:
| target | DRSC id | firefly reporter light, replicate 1 | firefly reporter light, replicate 2 | Renilla control light, replicate 1 | Renilla control light, replicate 2 | Call |
| --- | --- | --- | --- | --- | --- | --- |
| eEF1gamma | DRSC16659 | 90532 | 60134 | 1.45e6 | 1.89e6 | inactive |
| eEF1gamma | DRSC23655 | 4.91e5 | 3.82e5 | 4.07e5 | 4.63e5 | inactive |
| Fign | DRSC00592 | 8.37e5 | 9.73e5 | 1.90e6 | 1.97e6 | inactive |
| lncRNA:CR43314 | DRSC21354 | 7.81e5 | 6.54e5 | 1.80e6 | 1.53e6 | inactive |
| lncRNA:CR43314 | DRSC29259 | 4.48e5 | 6.97e5 | 1.32e6 | 1.31e6 | inactive |
| PGRP-LC | DRSC08980 | 1.36e5 | 1.13e5 | 3.92e5 | 4.33e5 | inactive |
| PGRP-LC | DRSC10416 | 2.44e5 | 1.79e5 | 3.09e6 | 2.21e6 | inactive |
| PGRP-LC | DRSC10417 | 1.23e5 | 1.20e5 | 1.53e6 | 1.33e6 | inactive |
| PGRP-LC | DRSC28556 | 2.76e5 | 3.09e5 | 9.07e5 | 1.59e6 | inactive |
| CG10053 | DRSC12502 | 75738 | 80173 | 5.91e5 | 6.30e5 | inactive |
| CG10053 | DRSC29993 | 6.10e5 | 3.68e5 | 1.02e6 | 1.03e6 | inactive |
| CycD | DRSC20233 | 3.20e5 | 2.10e5 | 3.50e6 | 2.95e6 | inactive |
| CycD | DRSC25031 | 2.49e5 | 2.56e5 | 4.91e5 | 4.71e5 | inactive |
| CycD | DRSC37015 | – | – | – | – | inactive |
| GstE6 | DRSC06676 | 1.55e5 | 2.42e5 | 2.35e6 | 2.88e6 | inactive |
| CG42807 | DRSC06966 | 96580 | 71514 | 1.79e6 | 1.79e6 | inactive |
| aop | DRSC22999 | 1.01e6 | 1.05e6 | 1.24e6 | 1.55e6 | inactive |
| aop | DRSC25805 | 2.63e5 | 2.75e5 | 6.28e5 | 4.47e5 | inactive |
| aop | DRSC39162 | 8.40e5 | 7.09e5 | 1.40e6 | 1.28e6 | inactive |
| CG4733 | DRSC15634 | 1.99e5 | 2.13e5 | 2.07e6 | 2.43e6 | inactive |
| CG4733 | DRSC36942 | – | – | – | – | inactive |
| CG4733 | DRSC36943 | – | – | – | – | inactive |
| gzl | DRSC12517 | 31230 | 22764 | 4.52e5 | 3.47e5 | inactive |
| gzl | DRSC27120 | 3.37e5 | 3.38e5 | 7.94e5 | 8.04e5 | inactive |
| GluRIIA | DRSC03334 | 88386 | 1.36e5 | 9.35e5 | 8.93e5 | inactive |
| Pcmt | DRSC12363 | 57217 | 57709 | 1.16e6 | 9.61e5 | inactive |
| CG9107 | DRSC03138 | 1.02e6 | 9.08e5 | 1.09e6 | 1.23e6 | inactive |
| CG16898 | DRSC06635 | 74115 | 1.00e5 | 9.60e5 | 1.56e6 | inactive |
| CG16898 | DRSC24760 | 8.31e5 | 7.94e5 | 9.59e5 | 9.22e5 | inactive |
| CG16898 | DRSC39032 | 9.33e5 | 8.49e5 | 2.19e6 | 1.84e6 | inactive |
| eIF2Bdelta | DRSC04058 | 7.41e5 | 8.10e5 | 1.04e6 | 1.08e6 | inactive |
| MED27 | DRSC12205 | 57663 | 59617 | 2.17e6 | 1.66e6 | inactive |
| fkh | DRSC16949 | 1.34e5 | 1.72e5 | 2.18e6 | 2.87e6 | inactive |
| fkh | DRSC28213 | 6.27e5 | 8.95e5 | 1.22e6 | 1.78e6 | inactive |
